The record followed here is PMC8372377.

Chains of the proteins cited; added tags and fusions are not shown. Lines headed by an entry give the natural chain unless they say otherwise; changes in a name come on top.
UniProt Q9NPQ8: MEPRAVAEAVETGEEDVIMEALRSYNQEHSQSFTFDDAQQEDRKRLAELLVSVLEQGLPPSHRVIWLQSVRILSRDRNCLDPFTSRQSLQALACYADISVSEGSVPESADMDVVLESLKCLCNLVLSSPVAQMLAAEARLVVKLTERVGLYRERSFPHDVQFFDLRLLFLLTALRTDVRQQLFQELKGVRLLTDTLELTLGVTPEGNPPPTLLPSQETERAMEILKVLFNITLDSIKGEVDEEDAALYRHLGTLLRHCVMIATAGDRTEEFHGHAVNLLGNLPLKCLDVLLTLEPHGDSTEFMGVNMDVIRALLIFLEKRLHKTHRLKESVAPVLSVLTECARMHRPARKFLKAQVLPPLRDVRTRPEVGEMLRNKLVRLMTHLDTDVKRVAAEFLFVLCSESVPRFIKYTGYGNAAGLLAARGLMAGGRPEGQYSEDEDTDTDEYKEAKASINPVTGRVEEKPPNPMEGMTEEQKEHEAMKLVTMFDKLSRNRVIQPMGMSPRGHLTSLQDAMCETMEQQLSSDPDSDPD

No constants are given. Whether binding was seen depends on the method and setting. Binding can be weak; no strength is given. Sequences can lack the tags named with a protein. For some of these results: Binding seen in cells or lysates may run through a third protein.

One assay has as its target T1, Myc-MID1 (UniProt O15344).
T1 sequence: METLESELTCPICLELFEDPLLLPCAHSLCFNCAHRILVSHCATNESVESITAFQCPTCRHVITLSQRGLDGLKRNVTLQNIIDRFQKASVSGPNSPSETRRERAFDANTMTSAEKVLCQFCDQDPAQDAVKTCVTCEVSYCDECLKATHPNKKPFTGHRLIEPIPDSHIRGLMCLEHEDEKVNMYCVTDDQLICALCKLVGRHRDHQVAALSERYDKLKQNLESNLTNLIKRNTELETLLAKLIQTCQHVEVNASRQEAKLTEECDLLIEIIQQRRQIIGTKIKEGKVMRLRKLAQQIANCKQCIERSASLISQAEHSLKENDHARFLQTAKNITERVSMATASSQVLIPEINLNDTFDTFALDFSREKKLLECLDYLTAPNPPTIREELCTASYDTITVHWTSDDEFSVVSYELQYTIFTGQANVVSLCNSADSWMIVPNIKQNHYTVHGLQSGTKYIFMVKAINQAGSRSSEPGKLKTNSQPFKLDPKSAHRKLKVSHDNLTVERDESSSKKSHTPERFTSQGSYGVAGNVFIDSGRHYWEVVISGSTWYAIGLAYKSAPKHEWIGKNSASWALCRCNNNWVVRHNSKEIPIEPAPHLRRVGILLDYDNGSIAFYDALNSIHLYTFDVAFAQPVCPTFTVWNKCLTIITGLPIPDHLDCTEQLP
The experiment in a line: co-IP; HEK-293T cells transfected with Myc-MID1 and Flag-RIC8A WT, N-terminal domain or C-terminal domain plasmids; Flag examined by western blotting. In general terms: A western blot detects proteins with antibodies after separation by electrophoresis.

For a further assay, the target named is Flag-RIC8A WT. The experiment in a line: co-IP; sequential IP: HEK-293T cells with Myc-MID1 and Flag-RIC8A; first Flag IP, rinsing with Flag peptides, eluates to a second IP with Myc antibodies or matching IgG; western blot.
The next assay has as its target GST-RIC8A (UniProt Q9NPQ8). The experiment in a line: pull-down; GST pull-down; GST-RIC8A and Myc-MID1 overexpressed and purified from cells; with or without circPDE4B RNA; GST as control; both purified.

Take “Flag-RIC8A N-terminal domain (1-153 amino acids) (domain or fragment)”: the binding entry with Myc-MID1 was “binds”. Consider Flag-RIC8A WT, for which, in the assay with Myc-MID1, the binding result is listed as “binds”.

B1: Myc-MID1 (protein, UniProt O15344 1-667)
chain: T1 sequence
Consider B1, for which the binding entry with Flag-RIC8A WT is given as “binds”.

B2: Myc-MID1 (purified) (protein, UniProt O15344 1-667)
chain: T1 sequence
B2: the binding entry in the assay with GST-RIC8A is “binds”.
